Literature values as cited in paper PMC7099768, “A positron emission tomography imaging study to confirm target engagement in the lungs of patients with idiopathic pulmonary fibrosis following a single dose of a novel inhaled αvβ6 integrin inhibitor” (Respiratory Research, 2020).

Conditions: healthy participants; potentially clinically relevant doses; cited from earlier work

Cc1cc(C)n(-c2cccc([C@H](CC(=O)O)CN3CC[C@@H](CCc4ccc5c(n4)NCCC5)C3)c2)n1 [GSK3008348, (S)-3-(3-(3,5-Dimethyl-1 H-pyrazol-1-yl)phenyl)-4-((R)-3-(2-(5,6,7,8-tetrahydro-1,8-naphthyridin-2-yl)ethyl)pyrrolidin-1-yl) butanoic acid]
Pharmacokinetic profile, dose proportionality: dose proportional
